These are yes or no findings as the source states them, for the method shown. In cells and extracts the contact can be indirect. These calls come from enrichment with a bait or labelling near it, and not all partners need be listed.
B1: RAB13 (protein, UniProt P51153 1-203)
chain: MAKAYDHLFKLLLIGDSGVGKTCLIIRFAEDNFNNTYISTIGIDFKIRTVDIEGKKIKLQVWDTAGQERFKTITTAYYRGAMGIILVYDITDEKSFENIQNWMKSIKENASAGVERLLLGNKCDMEAKRKVQKEQADKLAREHGIRFFETSAKSSMNVDEAFSSLARDILLKSGGRRSGNGNKPPSTDLKTCDKKNTNKCSLG

By UniProt entry, the sequences of proteins in these tests, tags left out.
UniProt P21439: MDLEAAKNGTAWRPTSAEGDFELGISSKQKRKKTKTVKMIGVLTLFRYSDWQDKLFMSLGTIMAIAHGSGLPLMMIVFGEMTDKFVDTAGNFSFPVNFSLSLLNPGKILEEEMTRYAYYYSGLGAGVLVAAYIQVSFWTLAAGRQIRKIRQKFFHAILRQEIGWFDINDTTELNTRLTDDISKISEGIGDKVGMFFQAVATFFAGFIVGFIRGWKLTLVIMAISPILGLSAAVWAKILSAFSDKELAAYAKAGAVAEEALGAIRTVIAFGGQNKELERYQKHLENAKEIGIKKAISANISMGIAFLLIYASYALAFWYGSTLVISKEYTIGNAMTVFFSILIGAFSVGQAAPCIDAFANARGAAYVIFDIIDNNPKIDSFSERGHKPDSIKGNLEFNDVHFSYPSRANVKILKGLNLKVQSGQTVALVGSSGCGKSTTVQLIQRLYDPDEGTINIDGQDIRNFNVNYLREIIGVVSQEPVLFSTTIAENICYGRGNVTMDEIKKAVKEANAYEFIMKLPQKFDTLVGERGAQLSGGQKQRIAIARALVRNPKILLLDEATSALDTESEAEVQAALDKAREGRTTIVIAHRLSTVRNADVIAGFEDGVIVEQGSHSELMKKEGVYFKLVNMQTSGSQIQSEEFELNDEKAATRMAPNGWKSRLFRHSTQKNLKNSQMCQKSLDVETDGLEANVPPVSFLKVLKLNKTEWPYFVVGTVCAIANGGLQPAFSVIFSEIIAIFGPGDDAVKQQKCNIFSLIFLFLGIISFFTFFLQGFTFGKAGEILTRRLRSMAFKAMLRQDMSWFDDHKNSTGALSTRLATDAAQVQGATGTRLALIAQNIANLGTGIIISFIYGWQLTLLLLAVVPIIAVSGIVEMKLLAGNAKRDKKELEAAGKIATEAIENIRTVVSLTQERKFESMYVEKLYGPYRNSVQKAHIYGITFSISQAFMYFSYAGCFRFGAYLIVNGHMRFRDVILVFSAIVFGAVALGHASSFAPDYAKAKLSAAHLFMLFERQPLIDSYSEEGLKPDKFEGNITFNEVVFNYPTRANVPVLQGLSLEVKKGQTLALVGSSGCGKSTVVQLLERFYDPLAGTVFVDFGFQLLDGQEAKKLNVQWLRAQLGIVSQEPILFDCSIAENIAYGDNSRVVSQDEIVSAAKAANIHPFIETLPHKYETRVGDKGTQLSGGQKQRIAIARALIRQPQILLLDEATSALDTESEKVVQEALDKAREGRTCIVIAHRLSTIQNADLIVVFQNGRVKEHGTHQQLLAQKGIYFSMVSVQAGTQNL
UniProt P61026: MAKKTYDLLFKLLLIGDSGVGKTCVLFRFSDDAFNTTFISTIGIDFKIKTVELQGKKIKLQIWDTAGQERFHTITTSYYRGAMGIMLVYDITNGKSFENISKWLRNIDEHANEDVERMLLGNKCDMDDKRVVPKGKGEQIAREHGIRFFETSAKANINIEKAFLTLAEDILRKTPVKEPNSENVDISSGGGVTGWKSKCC

Target: ABCB4 (ATP-binding cassette subfamily B member 4) (human (endogenous in primary human hepatocytes)) (UniProt P21439)
Assay: affinity purification with mass spectrometry; ABCB4 immunoprecipitated (anti-ABCB4 P3II-26, Protein A-Sepharose) from lysates of primary human hepatocytes and ABCB4-expressing HEK cells; 20 mM Tris-HCl pH 8.0, 137 mM NaCl, 2 mM EDTA, 1% Triton X-100, 4 °C; controls: unspecific IgG2b and non-ABCB4-expressing HEK cells; LC-MS-MS

Row | Molecule | binding
1 | RAB10 (from UniProt P61026 1-200) | binds
2 | B1 | binds

Reference: PMC8268348
